Test results published in publication PMC11770318, “Isolation and characterization of a β-galactosidase from Lactobacillus helveticus for industrial processing” (JDS Communications, 2024).
These are yes or no findings as the source states them, for the method shown. Some binding calls cover weakened binding; strength is not graded here.

Protein sequences, listed by entry. Tags and fused reporters are not part of them.
UniProt Q7WTB4: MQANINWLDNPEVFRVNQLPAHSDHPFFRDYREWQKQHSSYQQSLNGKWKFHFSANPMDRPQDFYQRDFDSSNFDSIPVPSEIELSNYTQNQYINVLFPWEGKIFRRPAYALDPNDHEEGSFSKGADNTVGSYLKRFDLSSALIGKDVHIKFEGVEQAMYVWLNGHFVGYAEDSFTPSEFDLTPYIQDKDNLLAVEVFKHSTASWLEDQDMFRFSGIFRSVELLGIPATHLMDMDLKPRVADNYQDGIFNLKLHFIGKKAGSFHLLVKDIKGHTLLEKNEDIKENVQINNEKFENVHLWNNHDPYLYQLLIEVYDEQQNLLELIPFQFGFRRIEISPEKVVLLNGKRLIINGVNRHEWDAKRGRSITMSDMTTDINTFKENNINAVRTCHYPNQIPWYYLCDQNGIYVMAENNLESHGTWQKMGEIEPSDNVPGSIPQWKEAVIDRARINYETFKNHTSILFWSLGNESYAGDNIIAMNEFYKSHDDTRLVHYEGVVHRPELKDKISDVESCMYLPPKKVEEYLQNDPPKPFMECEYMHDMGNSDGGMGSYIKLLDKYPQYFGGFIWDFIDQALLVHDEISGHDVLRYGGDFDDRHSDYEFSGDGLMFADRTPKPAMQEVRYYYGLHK

Target: β-galactosidase large subunit from Lactobacillus helveticus OSU-PECh-4A (Lactobacillus helveticus OSU-PECh-4A (endogenous)) (UniProt Q7WTB4)
Experiment: native gel or EMSA; endogenous enzyme co-purified from the intracellular extract (100 kDa diafiltration, SEC in 50 mM Tris-HCl with 2 mM MgCl2, pH 7.0); native PAGE and SDS-PAGE on 4% to 10% gel, Coomassie stained; subunits identified by LC-MS (ESI-TRAP)

binding: binds
B1: β-galactosidase small subunit from Lactobacillus helveticus OSU-PECh-4A (enzyme, UniProt Q7WTB3 1-318)
chain: MDYTNNQLHIIYGDATLGVNGKDFQYIFSYERGGLESLKVHGKEWLYRVPTPTFWRATTDNDRGSGFNLKAAQWLGADMFTKCTDIHLKVDRHDFAELPIAPFNNKFSNHEYAKSAEISFTYQTLTTPATNAKIIYNIDDVGHIKVTMRYYGKKGLPPLPVIGIRLIMPTAATGFDYEGLSGETYPDRMAGAKEGKFHIDGLPVTEYLVPQENGMHMQTKKLTINRETTQNNVDRTNEKFSLSIQQAEKPFNFSCLPYTAEELENATHIEELPLVRRTVLVIAGAVRGVGGIDSWGTDVESAYHINPELDHEFSFILN
